These are yes or no findings as the source states them, for the method shown. Binding seen in cells or lysates may run through a third protein. Some binding calls cover weakened binding; strength is not graded here. Sequences can lack the tags named with a protein.
Molecular target: T1, wild-type iRhom2-3XHA (human) (UniProt Q6PJF5)
T1 sequence: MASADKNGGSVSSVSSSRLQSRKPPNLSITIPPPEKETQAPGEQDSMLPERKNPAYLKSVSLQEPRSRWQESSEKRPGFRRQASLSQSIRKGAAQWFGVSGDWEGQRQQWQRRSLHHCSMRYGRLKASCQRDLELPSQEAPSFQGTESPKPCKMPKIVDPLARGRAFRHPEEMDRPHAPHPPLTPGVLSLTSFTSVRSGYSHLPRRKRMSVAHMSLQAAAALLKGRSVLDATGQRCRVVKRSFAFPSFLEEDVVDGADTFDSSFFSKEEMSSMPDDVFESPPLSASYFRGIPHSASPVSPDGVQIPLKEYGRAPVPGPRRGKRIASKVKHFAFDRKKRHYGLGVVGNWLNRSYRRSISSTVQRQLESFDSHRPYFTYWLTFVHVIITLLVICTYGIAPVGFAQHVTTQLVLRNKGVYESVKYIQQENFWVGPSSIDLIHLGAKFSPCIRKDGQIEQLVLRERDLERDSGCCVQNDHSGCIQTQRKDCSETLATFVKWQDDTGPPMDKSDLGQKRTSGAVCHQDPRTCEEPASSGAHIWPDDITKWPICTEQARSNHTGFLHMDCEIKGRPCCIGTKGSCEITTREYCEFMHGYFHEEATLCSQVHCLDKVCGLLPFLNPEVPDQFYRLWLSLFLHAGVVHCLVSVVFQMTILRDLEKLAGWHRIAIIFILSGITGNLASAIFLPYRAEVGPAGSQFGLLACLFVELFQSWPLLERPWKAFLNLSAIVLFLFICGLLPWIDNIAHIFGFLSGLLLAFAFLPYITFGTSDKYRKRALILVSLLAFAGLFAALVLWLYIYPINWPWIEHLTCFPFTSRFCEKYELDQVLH
Assay: co-IP

B1: SEC11A-Myc-FLAG (enzyme, UniProt P67812 1-179)
chain: MLSLDFLDDVRRMNKRQLYYQVLNFGMIVSSALMIWKGLMVITGSESPIVVVLSGSMEPAFHRGDLLFLTNRVEDPIRVGEIVVFRIEGREIPIVHRVLKIHEKQNGHIKFLTKGDNNAVDDRGLYKQGQHWLEKKDVVGRARGFVPYIGIVTILMNDYPKFKYAVLFLLGLFVLVHRE
B1 was tested, and the binding was “binds”.

— article doi:10.1101/2022.11.28.518246
